Experiment: Gelling test: kinetic viscosity of a guar based gel fluid
Details: 2.5 hr

## OO [Composition H2O2, hydrogen peroxide]
7 ppm H2O2 with 80 ppm POAA, compared with glutaraldehyde control
  impact on gel property: no impact on the gel property
14 ppm H2O2 with 80 ppm POAA
  impact on gel property: Gel failure
